These are yes or no findings as the source states them, for the method shown. In cells and extracts the contact can be indirect. Some results given as binding are weak or reduced against the parent protein; the word gives no strength. For part of these data: Tags and fused reporters may be left off the sequences shown.
Assays:
[1] = target: T1, GST-tagged USP domain (aa 756–1118) (human) (UniProt P40818); experiment: pull-down
T1 sequence: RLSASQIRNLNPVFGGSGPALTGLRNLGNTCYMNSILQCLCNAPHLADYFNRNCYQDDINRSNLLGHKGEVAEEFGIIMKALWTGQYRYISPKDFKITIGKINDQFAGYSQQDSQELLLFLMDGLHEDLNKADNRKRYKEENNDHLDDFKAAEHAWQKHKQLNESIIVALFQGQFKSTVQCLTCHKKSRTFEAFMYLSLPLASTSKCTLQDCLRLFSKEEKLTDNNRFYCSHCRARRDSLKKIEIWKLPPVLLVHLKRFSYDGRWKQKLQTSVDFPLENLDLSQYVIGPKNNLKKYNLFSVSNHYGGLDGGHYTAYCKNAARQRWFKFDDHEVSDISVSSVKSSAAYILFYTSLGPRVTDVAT

[2] = target: FLAG-tagged USP8 (human) (UniProt P40818); experiment: co-IP
[3] = target: USP8^Δ645–684 (human) (UniProt P40818); experiment: co-IP

B1: myc-tagged USP8^1–714 (domain or fragment, UniProt P40818 1-714)
chain: MPAVASVPKELYLSSSLKDLNKKTEVKPEKISTKSYVHSALKIFKTAEECRLDRDEERAYVLYMKYVTVYNLIKKRPDFKQQQDYFHSILGPGNIKKAVEEAERLSESLKLRYEEAEVRKKLEEKDRQEEAQRLQQKRQETGREDGGTLAKGSLENVLDSKDKTQKSNGEKNEKCETKEKGAITAKELYTMMTDKNISLIIMDARRMQDYQDSCILHSLSVPEEAISPGVTASWIEAHLPDDSKDTWKKRGNVEYVVLLDWFSSAKDLQIGTTLRSLKDALFKWESKTVLRNEPLVLEGGYENWLLCYPQYTTNAKVTPPPRRQNEEVSISLDFTYPSLEESIPSKPAAQTPPASIEVDENIELISGQNERMGPLNISTPVEPVAASKSDVSPIIQPVPSIKNVPQIDRTKKPAVKLPEEHRIKSESTNHEQQSPQSGKVIPDRSTKPVVFSPTLMLTDEEKARIHAETALLMEKNKQEKELRERQQEEQKEKLRKEEQEQKAKKKQEAEENEITEKQQKAKEEMEKKESEQAKKEDKETSAKRGKEITGVKRQSKSEHETSDAKKSVEDRGKRCPTPEIQKKSTGDVPHTSVTGDSGSGKPFKIKGQPESGILRTGTFREDTDDTERNKAQREPLTRARSEEMGRIVPGLPSGWAKFLDPITGTFRYYHSPTNTVHMYPPEMAPSSAPPSTPPTHKAKPQIPAERDREPSKLK
binding [1]: binds

B2: FLAG-tagged USP8 (enzyme, UniProt P40818 1-1118)
chain: MPAVASVPKELYLSSSLKDLNKKTEVKPEKISTKSYVHSALKIFKTAEECRLDRDEERAYVLYMKYVTVYNLIKKRPDFKQQQDYFHSILGPGNIKKAVEEAERLSESLKLRYEEAEVRKKLEEKDRQEEAQRLQQKRQETGREDGGTLAKGSLENVLDSKDKTQKSNGEKNEKCETKEKGAITAKELYTMMTDKNISLIIMDARRMQDYQDSCILHSLSVPEEAISPGVTASWIEAHLPDDSKDTWKKRGNVEYVVLLDWFSSAKDLQIGTTLRSLKDALFKWESKTVLRNEPLVLEGGYENWLLCYPQYTTNAKVTPPPRRQNEEVSISLDFTYPSLEESIPSKPAAQTPPASIEVDENIELISGQNERMGPLNISTPVEPVAASKSDVSPIIQPVPSIKNVPQIDRTKKPAVKLPEEHRIKSESTNHEQQSPQSGKVIPDRSTKPVVFSPTLMLTDEEKARIHAETALLMEKNKQEKELRERQQEEQKEKLRKEEQEQKAKKKQEAEENEITEKQQKAKEEMEKKESEQAKKEDKETSAKRGKEITGVKRQSKSEHETSDAKKSVEDRGKRCPTPEIQKKSTGDVPHTSVTGDSGSGKPFKIKGQPESGILRTGTFREDTDDTERNKAQREPLTRARSEEMGRIVPGLPSGWAKFLDPITGTFRYYHSPTNTVHMYPPEMAPSSAPPSTPPTHKAKPQIPAERDREPSKLKRSYSSPDITQAIQEEEKRKPTVTPTVNRENKPTCYPKAEISRLSASQIRNLNPVFGGSGPALTGLRNLGNTCYMNSILQCLCNAPHLADYFNRNCYQDDINRSNLLGHKGEVAEEFGIIMKALWTGQYRYISPKDFKITIGKINDQFAGYSQQDSQELLLFLMDGLHEDLNKADNRKRYKEENNDHLDDFKAAEHAWQKHKQLNESIIVALFQGQFKSTVQCLTCHKKSRTFEAFMYLSLPLASTSKCTLQDCLRLFSKEEKLTDNNRFYCSHCRARRDSLKKIEIWKLPPVLLVHLKRFSYDGRWKQKLQTSVDFPLENLDLSQYVIGPKNNLKKYNLFSVSNHYGGLDGGHYTAYCKNAARQRWFKFDDHEVSDISVSSVKSSAAYILFYTSLGPRVTDVAT
binding [2]: binds

B3: USP8^Δ645–684 (enzyme, UniProt P40818)
chain: MPAVASVPKELYLSSSLKDLNKKTEVKPEKISTKSYVHSALKIFKTAEECRLDRDEERAYVLYMKYVTVYNLIKKRPDFKQQQDYFHSILGPGNIKKAVEEAERLSESLKLRYEEAEVRKKLEEKDRQEEAQRLQQKRQETGREDGGTLAKGSLENVLDSKDKTQKSNGEKNEKCETKEKGAITAKELYTMMTDKNISLIIMDARRMQDYQDSCILHSLSVPEEAISPGVTASWIEAHLPDDSKDTWKKRGNVEYVVLLDWFSSAKDLQIGTTLRSLKDALFKWESKTVLRNEPLVLEGGYENWLLCYPQYTTNAKVTPPPRRQNEEVSISLDFTYPSLEESIPSKPAAQTPPASIEVDENIELISGQNERMGPLNISTPVEPVAASKSDVSPIIQPVPSIKNVPQIDRTKKPAVKLPEEHRIKSESTNHEQQSPQSGKVIPDRSTKPVVFSPTLMLTDEEKARIHAETALLMEKNKQEKELRERQQEEQKEKLRKEEQEQKAKKKQEAEENEITEKQQKAKEEMEKKESEQAKKEDKETSAKRGKEITGVKRQSKSEHETSDAKKSVEDRGKRCPTPEIQKKSTGDVPHTSVTGDSGSGKPFKIKGQPESGILRTGTFREDTDDTERNKAQREPLTRARSEEMPSSAPPSTPPTHKAKPQIPAERDREPSKLKRSYSSPDITQAIQEEEKRKPTVTPTVNRENKPTCYPKAEISRLSASQIRNLNPVFGGSGPALTGLRNLGNTCYMNSILQCLCNAPHLADYFNRNCYQDDINRSNLLGHKGEVAEEFGIIMKALWTGQYRYISPKDFKITIGKINDQFAGYSQQDSQELLLFLMDGLHEDLNKADNRKRYKEENNDHLDDFKAAEHAWQKHKQLNESIIVALFQGQFKSTVQCLTCHKKSRTFEAFMYLSLPLASTSKCTLQDCLRLFSKEEKLTDNNRFYCSHCRARRDSLKKIEIWKLPPVLLVHLKRFSYDGRWKQKLQTSVDFPLENLDLSQYVIGPKNNLKKYNLFSVSNHYGGLDGGHYTAYCKNAARQRWFKFDDHEVSDISVSSVKSSAAYILFYTSLGPRVTDVAT
binding [3]: binds

— publication doi:10.1101/2021.05.31.446389
